Measurements as given in publication PMC10403950.
No constants are given. Whether binding was seen depends on the method and setting. In cells and extracts the contact can be indirect. Some results given as binding are weak or reduced against the parent protein; the word gives no strength. For some assays here: Sequences can lack the tags named with a protein.

Sequences of proteins named here, by UniProt entry; tags and fusion partners are left off.
UniProt Q04206: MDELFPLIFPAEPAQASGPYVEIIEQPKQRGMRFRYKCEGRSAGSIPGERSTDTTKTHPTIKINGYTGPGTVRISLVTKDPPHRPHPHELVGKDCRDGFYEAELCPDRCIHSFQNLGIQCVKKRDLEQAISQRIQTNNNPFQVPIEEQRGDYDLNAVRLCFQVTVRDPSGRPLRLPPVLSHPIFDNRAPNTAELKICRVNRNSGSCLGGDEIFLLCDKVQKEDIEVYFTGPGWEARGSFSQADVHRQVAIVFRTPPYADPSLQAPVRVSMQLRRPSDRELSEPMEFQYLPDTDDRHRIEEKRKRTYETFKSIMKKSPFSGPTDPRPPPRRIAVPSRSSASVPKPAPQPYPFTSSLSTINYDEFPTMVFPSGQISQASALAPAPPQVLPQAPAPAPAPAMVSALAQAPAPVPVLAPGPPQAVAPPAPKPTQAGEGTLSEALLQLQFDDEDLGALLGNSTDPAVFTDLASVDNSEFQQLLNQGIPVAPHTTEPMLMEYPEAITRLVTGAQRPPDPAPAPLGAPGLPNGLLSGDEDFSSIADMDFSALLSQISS

T1: BAF nuclear assembly factor 1 (BANF1) (human (endogenous in NCM460 and Caco2)) (UniProt O75531)
T1 sequence: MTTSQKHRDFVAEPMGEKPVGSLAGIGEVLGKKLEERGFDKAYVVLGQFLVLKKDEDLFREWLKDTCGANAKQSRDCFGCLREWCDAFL

T2: FLAG-tagged TMIGD1 (transmembrane and immunoglobulin domain-containing protein 1) (UniProt Q6UXZ0)
T2 sequence: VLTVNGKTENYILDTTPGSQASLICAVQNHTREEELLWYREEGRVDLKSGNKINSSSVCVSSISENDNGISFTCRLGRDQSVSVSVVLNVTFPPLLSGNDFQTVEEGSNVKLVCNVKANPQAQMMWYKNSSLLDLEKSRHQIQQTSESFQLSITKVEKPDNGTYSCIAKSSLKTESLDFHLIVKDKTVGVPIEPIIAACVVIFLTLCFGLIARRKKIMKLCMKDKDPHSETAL


Assays:
[1] = molecular target: T1, BAF nuclear assembly factor 1 (BANF1) (human (endogenous in NCM460 and Caco2)); assay: co-IP; lysates of NCM460 cells; IP by anti-BANF1 or anti-p65 antibody, control IgG; Protein A/G magnetic beads; western blot
[2] = molecular target: T2, FLAG-tagged TMIGD1 (transmembrane and immunoglobulin domain-containing protein 1); assay: co-IP; lysates of NCM460 cells transfected with lentivirus overexpressing FLAG-tagged TMIGD1; IP by anti-FLAG or anti-BANF1 antibody, control IgG; antibody at 4°C overnight, Protein A/G magnetic beads; western blot

| binding [1] | binding [2] | Molecule |
| --- | --- | --- |
| binds |  | p65 (from UniProt Q04206 1-551) |
|  | binds | BAF nuclear assembly factor 1 (BANF1) (protein, UniProt O75531 1-89) MTTSQKHRDFVAEPMGEKPVGSLAGIGEVLGKKLEERGFDKAYVVLGQFLVLKKDEDLFREWLKDTCGANAKQSRDCFGCLREWCDAFL |
